From patent US12065471B2, “B*44 restricted peptides for use in immunotherapy against cancers and related methods” (Immatics Biotechnologies GmbH, priority 2018, dated 2024)

What was measured:
[1] = system: source genes (mRNA) in tumor and normal tissues; assay: Expression profiling of genes encoding the peptides (RNAseq); set-up: species or system human; conditions: for Gene Expression in tumor samples: highly over-expressed (++): tumor types in which the peptide's source gene is highly over-expressed compared to a panel of normal tissues (RNAseq); for Gene Expression in tumor samples: over-expressed (+): tumor types in which the peptide's source gene is over-expressed compared to a panel of normal tissues (RNAseq); for Gene Expression in tumor samples: very highly over-expressed (+++): tumor types in which the peptide's source gene is very highly over-expressed compared to a panel of normal tissues (RNAseq)
[2] = system: HLA molecules of primary tumor and normal tissue samples; assay: Identification and quantitation of tumor associated peptides presented on the cell surface (HLA immunoprecipitation, label-free LC-MS); set-up: species or system human; conditions: cancer entities on which the peptide was found presented (HLA immunoprecipitation, LC-MS); abbreviations in table footnotes

Substance	Gene Expression in tumor samples: highly over-expressed (++) [1]	Gene Expression in tumor samples: over-expressed (+) [1]	Peptide Presentation on cancer entities [2]	Gene Expression in tumor samples: very highly over-expressed (+++) [1]
56: peptide found in SRMS (gene looked up) (ALEEGGGYIF; listed as Homo sapiens) [compound 56]	CRC, OC	BRCA, GBC, GBM, GC, HNSCC, MEL, NSCLCadeno, NSCLCother, OSCAR, PACA, UBC, UEC	HCC	–
206: peptide found in ADAMTS12 (gene looked up) (SEDPEKYYL; listed as Homo sapiens) [compound 206]	CCC, GBC	BRCA, CRC, GC, HNSCC, MEL, NSCLCadeno, NSCLCother, NSCLCsquam, OSCAR, PACA, SCLC, UBC	CCC, NSCLCsquam	–
291: peptide found in FERMT1 (gene looked up) (DEQLLLRF; listed as Homo sapiens) [compound 291]	CRC	GC, HNSCC, NSCLCsquam, OSCAR, UBC	CRC, OSCAR	–
278: peptide found in ABCC4 (gene looked up) (DQVTVFLHF; listed as Homo sapiens) [compound 278]	PRCA	–	UBC	–
13: peptide found in SLC6A3 (gene looked up) (VEAQDRETW; listed as Homo sapiens) [compound 13]	–	NSCLCadeno, NSCLCsquam, SCLC	RCC	RCC
7: peptide found in TRPM8 (gene looked up) (SESDLVNFI; listed as Homo sapiens) [compound 7]	GBM, MEL	–	PRCA	PRCA
241: peptide found in APOB (gene looked up) (QELLDIANYL; listed as Homo sapiens) [compound 241]	HCC	–	CCC, HCC	–
31: peptide found in ESR1 (gene looked up) (MESAKETRY; listed as Homo sapiens) [compound 31]	BRCA, OC, UEC	–	BRCA, UEC	–
101: peptide found in MMP1 (gene looked up) (SEENTGKTY; listed as Homo sapiens) [compound 101]	HNSCC, NSCLCsquam, OSCAR	CRC, GC, NSCLCadeno, PACA, UBC	OSCAR	–
335: peptide found in ABCC4 (gene looked up) (SETPTLQGL; listed as Homo sapiens) [compound 335]	–	PRCA	HCC	–
432: peptide found in NAT1 (gene looked up) (TEENGFWYL; listed as Homo sapiens) [compound 432]	BRCA	–	BRCA	–
395: peptide found in GSAP (gene looked up) (AEDFVWAQW; listed as Homo sapiens) [compound 395]	–	CLL	CLL, CRC, HCC, NHL, NSCLCsquam	–
247: peptide found in APOB (gene looked up) (KESMLKTTL; listed as Homo sapiens) [compound 247]	HCC	–	HCC	–
191: peptide found in PHEX (gene looked up) (AEHDMKSVL; listed as Homo sapiens) [compound 191]	CLL	NHL	NHL	–
272: peptide found in APOB (gene looked up) (SEQNIQRANLF; listed as Homo sapiens) [compound 272]	HCC	–	CCC, HCC	–

For some of these results: For expression read-outs the peptide stands for its source gene, whose mRNA was measured; the gene is not named for every peptide.
